Experimental data published in PubChem BioAssay AID540256 (National Center for Advancing Translational Sciences (NCATS), 2011).
Hit rate of the full screen: of about 300,000 compounds, about 3,700 (1.2%) were called active. Inconclusive results, whose numbers are uncertain, are shown with a selection of clear calls. Calls come from the whole dose curve; tested in HEK293 cells. A potency beside an inconclusive call is a rough fit, not a confirmed value. A structure can be active in one record and inactive in another.

Assay: qHTS for Inhibitors of binding or entry into cells for Lassa Virus; note: nearly all actives have a fitted effect of over 50% in size
Conditions: Lassa virus pseudotype entry inhibition, cell reporter; activity change, negative = inhibition: at 37.9 µM (top of the series) unless noted
% is set by controls: 0 for no effect and ±100 for the full control effect; potency is the fitted concentration of half-maximal effect.

SMILES | activity change, negative = inhibition | Potency
Nc1nc(CSc2ncn(-c3ccccc3)n2)cs1 | inactive: -22.3% | 
Cc1ccc2nc(-c3cccc(NC(=O)c4ccc5c(c4)OCCO5)c3)oc2c1 | inactive: 17.1% | 
CCn1c(CNC(=O)C23CC4CC(CC(C4)C2)C3)nnc1SC |  | inconclusive: 14.1 µM [activator, single point]
O=C(O)c1cccc(NC(=S)NC(=O)c2ccc(-c3ccc(Cl)cc3)o2)c1 |  | inconclusive: 35.5 µM [inhibitor, single point]
COc1ccc(NC(=O)c2sc(N3CCOCC3)nc2-c2ccccc2)c(OC)c1 |  | inconclusive: 31.6 µM [inhibitor, single point]
Cc1ccc(C(=O)NCc2ccco2)cc1S(=O)(=O)N1CCCCC1 |  | inconclusive: 3.26 µM [inhibitor, full curve, poor fit]
O=C(Cc1cn(Cc2cccc(Cl)c2)c2ccccc12)N1CCCCCC1 |  | inconclusive: 35.5 µM [inhibitor, single point]
CCOc1ccc(N(C)S(=O)(=O)c2ccc(C)c(C(=O)NCCc3ccc(OC)cc3)c2)cc1 |  | inconclusive: 3.98 µM [inhibitor, full curve]
Cc1onc(-c2ccccc2)c1-c1csc(N/N=C/c2ccccc2)n1 |  | inconclusive: 0.794 µM [inhibitor, full curve, poor fit]
CCCCCOc1ccc(CSc2n[nH]c(C)n2)cc1 |  | inconclusive: 35.5 µM [inhibitor, single point]
CS(=O)(=O)Nc1ccc([N+](=O)[O-])cc1Oc1ccccc1 |  | active: 0.0164 µM
COc1ccc(CCNC(=O)C2Cc3ccccc3C(=O)O2)cc1 (configuration not stated) | inactive: 3.82% | 
Cc1ccc2nc(-c3cccc(N)c3)[nH]c2c1 |  | inconclusive: 12.6 µM [inhibitor, single point]
COc1ccc(/C=C/C(=O)c2ccc3c4c(cccc24)CC3)cc1OC |  | inconclusive: 12.6 µM [inhibitor, single point]
N=c1c2c(-c3ccccc3)c(-c3ccccc3)n(Cc3ccccc3)c2ncn1CCCn1ccnc1 |  | inconclusive: 11.2 µM [inhibitor, partial curve, poor fit]
COc1cccc(N2CCN(C(=O)c3cc(-c4ccc(F)cc4)[nH]c3C)CC2)c1 |  | inconclusive: 35.5 µM [inhibitor, single point]
CCn1cc(S(=O)(=O)c2cccc(Cl)c2)c(=O)c2cc(F)c(N3CCN(C)CC3)cc21 | inactive: -3.68% [at 46.1 µM] | 
O=C(Cn1cc([N+](=O)[O-])ccc1=O)N1CCCc2ccccc21 |  | inconclusive: 0.316 µM [activator, full curve, poor fit]
N/C(=N\OC(=O)Nc1ccc(Cl)cc1)c1ncc(C(F)(F)F)cc1Cl | inactive: -18.8% | 
O=C(CSc1ccccc1)NCc1ccc2c(c1)CCN2C(=O)c1ccccc1 |  | inconclusive: 2.51 µM [inhibitor, partial curve, poor fit]
CCC(C)(C)NC(=O)C(c1cccc(OC)c1OC)N(CCOC)C(=O)CCC(=O)Nc1cc(C)on1 (configuration not stated) | inactive: 21.8% [at 46.1 µM] | 
Cc1ccc(N=C2NC(=O)CC(C(=O)Nc3ccc4c(c3)OCO4)S2)cc1 (configuration not stated) |  | inconclusive: 20 µM [inhibitor, single point]
CNC(=O)c1ccsc1NC(=O)CCS(=O)(=O)c1ccccc1 | inactive: 14.4% | 

SMILES | activity change, negative = inhibition | Potency
CCCCn1c(O)c(N=NC(=O)c2ccccc2NS(=O)(=O)c2cccs2)c2ccccc21 |  | inconclusive: 0.112 µM [inhibitor, full curve, poor fit]
COC(=O)c1cc(C(=O)OC)n(Cc2ccc(Br)cc2)n1 |  | inconclusive: 2.06 µM [activator, partial curve, poor fit]
CCOC(=O)C1=C(C)NC(=S)NC1c1ccc(-c2cccc(Cl)c2C)o1 (configuration not stated) |  | inconclusive: 15.8 µM [inhibitor, single point]
Cc1cccc(Cn2c(SCc3ccc(C(=O)NC4CCCC4)cc3)nc3cccnc32)c1 |  | inconclusive: 12.6 µM [inhibitor, single point]
C=CCN(CC=C)C(=O)c1ccc2nc(Cc3ccc(OC)c(OC)c3)oc2c1 |  | inconclusive: 5.62 µM [inhibitor, single point]
Clc1ccc(-n2ncc3c(NCCCn4ccnc4)ncnc32)cc1 |  | inconclusive: 4.61 µM [activator, partial curve]
COc1ccc(/C=N/NC(=O)C(C)n2cnc3ccccc3c2=O)cc1OC (configuration not stated) |  | inconclusive: 8.91 µM [activator, partial curve, poor fit]
CCOC(=O)c1ccc(NC(=O)CCCn2c(=O)c3cccn3c3cccnc32)cc1 | inactive: -29.2% [at 46.1 µM] | 
CCN(c1cccc(C)c1)S(=O)(=O)c1csc(C(N)=O)c1 | inactive: 10.3% | 
Cc1ccc(NS(=O)(=O)c2ccc(Cl)c(NC(=S)NC(=O)C3CCCCC3)c2)cc1Cl |  | inconclusive: 14.6 µM [inhibitor, partial curve]
O=C(CCCN1C(=O)/C(=C/c2ccccc2OC(F)F)SC1=S)Nc1cccnc1 |  | inconclusive: 35.5 µM [inhibitor, single point]
C=CCN(C(=O)c1csnn1)C(C(=O)NCc1ccc(F)cc1)c1ccccc1 (configuration not stated) |  | inconclusive: 7.08 µM [inhibitor, full curve, poor fit]
O=C(/C=C/c1ccccc1)N1CCN(S(=O)(=O)c2ccc(F)cc2)CC1 | inactive: 5.4% | 
C=CCOc1ccc(C(=O)NC2CCCCC2)cc1 | inactive: 2.65% | 
C/C(=N\NS(=O)(=O)c1ccccc1)c1cccc(NC(=O)c2cccc(Cl)c2)c1 |  | inconclusive: 11.2 µM [inhibitor, partial curve, poor fit]
Fc1ccc(Nc2nccc(-c3c(-c4ccc(C(F)(F)F)cc4)nn4ncccc34)n2)cc1F | inactive: -4.15% | 
CCCN=C1N/C(=C\c2ccco2)C(=O)N1c1ccccc1 |  | inconclusive: 10 µM [inhibitor, partial curve, poor fit]
CC1(c2ccc(Cl)cc2Cl)NC(=O)N(CC(=O)Nc2ccc3[nH]c(=O)[nH]c3c2)C1=O (configuration not stated) | inactive: 19.7% | 
CCC(C)N1C(=O)CCC1C(=O)N1CCN(c2ccccc2F)CC1 (configuration not stated) |  | inconclusive: 16.4 µM [inhibitor, partial curve, poor fit]
Cc1nc2ccccn2c1C(=O)/C=C/c1ccc(F)cc1 |  | inconclusive: 35.5 µM [inhibitor, single point]
CCN(CC)C(=O)CSC1=C(C#N)C(c2cccs2)C=C(C)N1 (configuration not stated) |  | inconclusive: 35.5 µM [inhibitor, single point]
Cc1ccc(C(=O)NC2CCCC2)cc1S(=O)(=O)N1CCCCC1 |  | inconclusive: 11.2 µM [inhibitor, partial curve, poor fit]
O=C1/C(=C/c2cccnc2)SC(=S)N1C1CCS(=O)(=O)C1 (configuration not stated) |  | inconclusive: 11.2 µM [inhibitor, partial curve, poor fit]

Among those listed so far, 2 contain a CF3 group.
SMILES | activity change, negative = inhibition | Potency
N/C(=N\OC(=O)Nc1ccc(Cl)cc1)c1ncc(C(F)(F)F)cc1Cl | inactive: -18.8% | 
Fc1ccc(Nc2nccc(-c3c(-c4ccc(C(F)(F)F)cc4)nn4ncccc34)n2)cc1F | inactive: -4.15% | 

Remaining list, next part

SMILES | activity change, negative = inhibition | Potency
NS(=O)(=O)c1ccc(CCNC(=O)c2ccc3ccccc3n2)cc1 |  | inconclusive: 31.6 µM [inhibitor, single point]
CC(C)c1nnc(-c2ccc(Cl)cc2)c(N(C)C)n1 |  | inconclusive: 4.61 µM [activator, full curve, poor fit]
Cc1ccc(NC(=O)c2cc3c(=O)[nH]c4ccccc4c3n2C)cc1F |  | inconclusive: 35.5 µM [inhibitor, single point]
COc1ccc(-c2cc(C(C)=O)c(C)n2CCC(=O)NCc2ccc(F)cc2)cc1 | inactive: -3.38% [at 46.1 µM] | 
CCCCn1c(CNC(=O)c2ccc(OC)cc2)nnc1SCC(=O)Nc1ccccc1 | inactive: -29.3% [at 46.1 µM] | 
CCN1CCN(Cc2ccc(C)cc2)CC1 | inactive: -3.75% | 
CCOC(=O)c1sc(NC(=O)CS(=O)(=O)c2ccc(C)cc2)nc1C |  | inconclusive: 6.31 µM [inhibitor, partial curve, poor fit]
COc1ccccc1NC(=O)Nc1nc(CC(=O)N2CCN(c3ccccc3)CC2)cs1 |  | inconclusive: 2.82 µM [inhibitor, full curve, poor fit]
CCN(CC)CCNc1nc(SC)nc2sc3c(c12)CCN(C)C3 |  | inconclusive: 35.5 µM [inhibitor, single point]
COc1cc(C2CC(=O)Nc3c2c(=O)n(C)c(=O)n3C)cc(OC)c1OC (configuration not stated) | inactive: 25.4% [at 46.1 µM] | 
CCCn1c(SCC(=O)NCCc2ccccc2)nnc1C(C)C | inactive: 1.53% | 
Cc1cc(C)cc(NC(=O)CN2C(=O)CN=C(c3ccccc3)c3cc(Cl)ccc32)c1 |  | inconclusive: 22.4 µM [inhibitor, single point]
CCOC(=O)N1CCN(C(=O)c2cc3c(=O)n4ccccc4nc3s2)CC1 | inactive: 9.27% | 
COC(=O)CN(c1ccc(C)c(Cl)c1)S(C)(=O)=O |  | inconclusive: 3.26 µM [activator, single point]
Cc1occc1-c1nnc(SCC(=O)NCCc2ccccc2)n1Cc1ccccc1 |  | inconclusive: 0.447 µM [activator, partial curve, poor fit]
CCOC(=O)N/N=C(\C)c1cccs1 | inactive: 14.7% | 
CCSc1nnc(-c2ccc(Cl)cc2Cl)o1 |  | inconclusive: 29.1 µM [inhibitor, single point]
Cc1ccc(S(=O)(=O)N(C)c2ccc(OCC(=O)Nc3nc(-c4ccccc4)cs3)cc2)cc1 |  | inconclusive: 1 µM [inhibitor, partial curve, poor fit]
CN(CC(=O)Nc1ccc(N2CCOCC2)cc1)C(=O)c1cc(F)c(F)cc1Cl | inactive: 17.9% | 
CCc1ccccc1Nc1nn2c(=O)c3ccc(C(=O)Nc4cc(C)cc(C)c4)cc3nc2s1 |  | inconclusive: 2 µM [inhibitor, partial curve, poor fit]
NC(=O)CCC(NC(=O)c1ccc(Cl)cc1)C(=O)NCCc1ccc2c(c1)OCCO2 (configuration not stated) | inactive: 1.79% [at 46.1 µM] | 
